Results reported in PMC10085060 (Oncotarget, 2023).
Several values for one entry are separate records, joined by “and”; a condition that tells them apart may be missing. Equal values may be shown once.

Experiments:
[1] = Plasma trough pharmacokinetics of sorafenib and riluzole (LC-MS/MS); conditions: for Riluzole trough plasma concentration, D2 Predose / Riluzole trough plasma concentration, D8/9 Predose / Riluzole trough plasma concentration, D10 Predose / Riluzole trough plasma concentration, D15 Predose: individual patients; for Riluzole Cmin,ss Geometric mean (CV%): average trough level on D8, D10 and D15
Procedure: Following centrifugation for 10 min at 1,500 × g at 4°C within 30 min of blood collection, the plasma was aliquoted and stored at −80°C.

[2] = Drug related adverse events (CTCAE version 4.0)
[3] = Dose Level 1: Sorafenib 200 mg qd and Riluzole 100 mg BID
[4] = Dose Level 2: Sorafenib 200 mg BID and Riluzole 100 mg BID
[5] = Dose Level 3: Sorafenib 400 mg AM, 200 mg PM and Riluzole 100 mg BID
[6] = Dose Level 4: Sorafenib 400 mg BID and Riluzole 100 mg BID
[7] = all dose levels, Riluzole 100 mg BID with sorafenib
[8] = all dose levels, Riluzole 100 mg BID with sorafenib, listed as Riluzole
[9] = drug related AE, Grade ≥3, n=35
[10] = drug related AE, any grade, n=35

Nc1nc2ccc(OC(F)(F)F)cc2s1 [riluzole]
riluzole accumulation through multiple doses ([1]; 100 mg BID with sorafenib, steady state after eight days): no riluzole accumulation was observed | riluzole Cmin,ss, geomean ([1]; DL3, Group 1 ("high" sorafenib Cmin,ss >4 μg/mL; 14 patients)): 82.1 ng/mL | riluzole Cmin,ss, geomean ([1]; DL3, Group 2 ("low" sorafenib Cmin,ss <4 μg/mL; 6 patients)): 74.8 ng/mL | Riluzole trough plasma concentration, D2 Predose, Geomean (CV%) [1, 3]: 18.92 (92) ng/mL | Riluzole trough plasma concentration, D8/9 Predose, Geomean (CV%) [1, 3]: 44.79 (50) ng/mL | Riluzole trough plasma concentration, D10 Predose, Geomean (CV%) [1, 3]: 26.27 (80) ng/mL | Riluzole trough plasma concentration, D15 Predose, Geomean (CV%) [1, 3]: 31.11 (72) ng/mL | Riluzole trough plasma concentration, D2 Predose [1, 3]: 57.32 ng/mL and 10.74 ng/mL and 3.33 ng/mL and 62.45 ng/mL | Riluzole trough plasma concentration, D8/9 Predose [1, 3]: 78.14 ng/mL and 62.61 ng/mL and 22.29 ng/mL and 36.89 ng/mL | Riluzole trough plasma concentration, D10 Predose [1, 3]: 68.6 ng/mL and 51.11 ng/mL and 15.26 ng/mL and 8.9 ng/mL | Riluzole trough plasma concentration, D15 Predose [1, 3]: 75.67 ng/mL and 36.97 ng/mL and 13.85 ng/mL and 24.17 ng/mL | Riluzole trough plasma concentration, D2 Predose, Geomean (CV%) [1, 4]: 58.35 (82) ng/mL | Riluzole trough plasma concentration, D8/9 Predose, Geomean (CV%) [1, 4]: 42.93 (50) ng/mL | Riluzole trough plasma concentration, D10 Predose, Geomean (CV%) [1, 4]: 45.97 (68) ng/mL | Riluzole trough plasma concentration, D15 Predose, Geomean (CV%) [1, 4]: 56.72 (79) ng/mL | Riluzole trough plasma concentration, D2 Predose [1, 4]: 35.07 ng/mL and 95.29 ng/mL and 45.1 ng/mL and 42.18 ng/mL and 142.56 ng/mL and 26.84 ng/mL | Riluzole trough plasma concentration, D8/9 Predose [1, 4]: 83.1 ng/mL and 69.82 ng/mL and 35.73 ng/mL and 28.19 ng/mL and 47.99 ng/mL and 22.33 ng/mL | Riluzole trough plasma concentration, D10 Predose [1, 4]: 115.98 ng/mL and 62.36 ng/mL and 39.19 ng/mL and 36.03 ng/mL and 40.55 ng/mL and 20.11 ng/mL | Riluzole trough plasma concentration, D15 Predose [1, 4]: 170.15 ng/mL and 101.4 ng/mL and 48.51 ng/mL and 35.45 ng/mL and 30.81 ng/mL and 36.43 ng/mL | Riluzole trough plasma concentration, D2 Predose, Geomean (CV%) [1, 5]: 59.88 (97) ng/mL | Riluzole trough plasma concentration, D8/9 Predose, Geomean (CV%) [1, 5]: 66.01 (109) ng/mL | Riluzole trough plasma concentration, D10 Predose, Geomean (CV%) [1, 5]: 77.34 (175) ng/mL | Riluzole trough plasma concentration, D15 Predose, Geomean (CV%) [1, 5]: 67.50 (119) ng/mL | Riluzole trough plasma concentration, D2 Predose [1, 5]: 55.95 ng/mL and 47.37 ng/mL and 28.71 ng/mL and 73.18 ng/mL and 32.02 ng/mL and 30.21 ng/mL and 47.71 ng/mL and 53.1 ng/mL and 56.61 ng/mL and 37.24 ng/mL and 64.09 ng/mL and 19.62 ng/mL and 58.86 ng/mL and 66.84 ng/mL and 18 ng/mL and 41.51 ng/mL and 127.44 ng/mL and 295.14 ng/mL and 250.15 ng/mL and 253.77 ng/mL and 40.63 ng/mL and 119.96 ng/mL | Riluzole trough plasma concentration, D8/9 Predose [1, 5]: 62.44 ng/mL and 81.2 ng/mL and 455.25 ng/mL and 17.87 ng/mL and 116.11 ng/mL and 43.44 ng/mL and 32.96 ng/mL and 32.87 ng/mL and 90.92 ng/mL and 43.12 ng/mL and 47.28 ng/mL and 18.2 ng/mL and 67.09 ng/mL and 96.47 ng/mL and 83.41 ng/mL and 54.31 ng/mL and 815.72 ng/mL and 6.14 ng/mL and 149.76 ng/mL and 194.16 ng/mL and 57.58 ng/mL | Riluzole trough plasma concentration, D10 Predose [1, 5]: 69.2 ng/mL and 142.35 ng/mL and 14.45 ng/mL and 127.21 ng/mL and 47.08 ng/mL and 61.84 ng/mL and 47.42 ng/mL and 39.41 ng/mL and 52.51 ng/mL and 13.19 ng/mL and 60.1 ng/mL and 89.82 ng/mL and 76.9 ng/mL and 48.4 ng/mL and 703.83 ng/mL and < LOD and 1368.52 ng/mL and 128.03 ng/mL and 57.99 ng/mL | Riluzole trough plasma concentration, D15 Predose [1, 5]: 71.35 ng/mL and 60.98 ng/mL and 20.22 ng/mL and 124.67 ng/mL and 49.06 ng/mL and 47.37 ng/mL and 66.2 ng/mL and 68.14 ng/mL and 7.02 ng/mL and 76.1 ng/mL and 85.03 ng/mL and 92.65 ng/mL and 40.12 ng/mL and 882.52 ng/mL and < LOD and 1014.41 ng/mL and 135.37 ng/mL and 80.05 ng/mL | Riluzole trough plasma concentration, D2 Predose, Geomean (CV%) [1, 6]: 29.03 (52) ng/mL | Riluzole trough plasma concentration, D8/9 Predose, Geomean (CV%) [1, 6]: 23.10 (35) ng/mL | Riluzole trough plasma concentration, D10 Predose, Geomean (CV%) [1, 6]: 29.86 (36) ng/mL | Riluzole trough plasma concentration, D15 Predose, Geomean (CV%) [1, 6]: 19.53 (61) ng/mL | Riluzole trough plasma concentration, D2 Predose [1, 6]: 47.38 ng/mL and 36.46 ng/mL and 14.16 ng/mL | Riluzole trough plasma concentration, D8/9 Predose [1, 6]: 31.53 ng/mL and 25.95 ng/mL and 15.07 ng/mL | Riluzole trough plasma concentration, D10 Predose [1, 6]: 37.2 ng/mL and 38.88 ng/mL and 18.41 ng/mL | Riluzole trough plasma concentration, D15 Predose [1, 6]: 33.44 ng/mL and 7.23 ng/mL and 30.81 ng/mL | Riluzole Cmin,ss Geometric mean (CV%) ([1]; Level 1 (n = 4)): 34.93 (64) ng/mL | Riluzole Cmin,ss Geometric mean (CV%) ([1]; Level 2 (n = 6)): 48.84 (65) ng/mL | Riluzole Cmin,ss Geometric mean (CV%) ([1]; Level 3 (n = 22)): 79.72 (153) ng/mL | Riluzole Cmin,ss Geometric mean (CV%) ([1]; Level 4 (n = 3), sorafenib 400 mg BID): 25.98 ng/mL | Riluzole Cmin,ss Geometric mean (CV%) ([1]; Level 4 (n = 3), sorafenib 400 mg BID, listed as Riluzole): 25.98 (25) ng/mL | Riluzole trough plasma concentration, D2 Predose, Total Geomean (CV%) [1, 7]: 47.15 (71) ng/mL | Riluzole trough plasma concentration, D2 Predose, total Median [1, 7]: 47.37 ng/mL | Riluzole trough plasma concentration, D8/9 Predose, Total Geomean (CV%) [1, 7]: 52.57 (112) ng/mL | Riluzole trough plasma concentration, D8/9 Predose, total Median [1, 7]: 51.15 ng/mL | Riluzole trough plasma concentration, D10 Predose, Total Geomean (CV%) [1, 7]: 55.83 ng/mL | Riluzole trough plasma concentration, D10 Predose, total Median [1, 7]: 52.51 ng/mL | Riluzole trough plasma concentration, D15 Predose, Total Geomean (CV%) [1, 7]: 51.47 ng/mL | Riluzole trough plasma concentration, D15 Predose, total Median [1, 7]: 49.06 ng/mL | Riluzole trough plasma concentration, D10 Predose, Total Geomean (CV%) [1, 8]: 55.83 (103) ng/mL | Riluzole trough plasma concentration, D15 Predose, Total Geomean (CV%) [1, 8]: 51.47 (177) ng/mL | inter-individual variability in plasma riluzole levels, CV in the geometric mean ([1]; among individuals in various sorafenib dose cohorts): 35% to 175% | riluzole Cmin,ss, range ([1]; in vivo): 46 to 793 ng/mL | Abdominal Pain [2, 9]: 1 | Alkaline Phosphatase Increase [2, 9]: 0 | Anemia [2, 9]: 0 | Anorexia [2, 9]: 0 | Arthralgia [2, 9]: 0 | Cardiac troponin I increased [2, 9]: 0 | Congestive Heart Failure [2, 9]: 0 | Fatigue [2, 9]: 1 | Hypertension [2, 9]: 0 | Hypokalemia [2, 9]: 0 | Hyponatremia [2, 9]: 0 | Hypophosphatemia [2, 9]: 0 | Lipase Increase [2, 9]: 0 | Lymphocyte Count Decrease [2, 9]: 0 | Maculopapular Rash [2, 9]: 0 | Myocardial infarction [2, 9]: 0 | Neutrophil count decrease [2, 9]: 0 | Palmar-plantar erythrodysesthesia syndrome [2, 9]: 0 | Pruritus [2, 9]: 0 | White Blood Cell Decreased [2, 9]: 0 | Wound complication [2, 9]: 0 | Abdominal Pain [2, 10]: 1 | Acute Coronary Syndrome [2, 10]: 0 | Acute Kidney Injury [2, 10]: 0 | Alanine Aminotransferase Increase [2, 10]: 1 | Alkaline Phosphatase Increase [2, 10]: 1 | Alopecia [2, 10]: 0 | Anemia [2, 10]: 0 | Anorexia [2, 10]: 0 | Arthralgia [2, 10]: 1 | Aspartate Aminotransferase Increase [2, 10]: 2 | Ataxia [2, 10]: 2 | Blood Bilirubin Increase [2, 10]: 1 | Blurred vision [2, 10]: 1 | Bullous dermatitis [2, 10]: 0 | Cardiac troponin I increased [2, 10]: 0 | Congestive Heart Failure [2, 10]: 0 | Cough [2, 10]: 1 | Depression [2, 10]: 1 | Diarrhea [2, 10]: 0 | Dizziness [2, 10]: 3 | Dry Mouth [2, 10]: 0 | Dry skin [2, 10]: 3 | Dysarthria [2, 10]: 1 | Dysgeusia [2, 10]: 0 | Dyspepsia [2, 10]: 0 | Dyspnea [2, 10]: 1 | Edema (limbs) [2, 10]: 1 | Fatigue [2, 10]: 2 | Fecal Incontinence [2, 10]: 0 | Fever [2, 10]: 0 | Flatulence [2, 10]: 0 | Gastrointestinal Fistula [2, 10]: 0 | Gastroparesis [2, 10]: 1 | Headache [2, 10]: 0 | Hoarseness [2, 10]: 0 | Hypercalcemia [2, 10]: 0 | Hyperglycemia [2, 10]: 0 | Hyperkalemia [2, 10]: 0 | Hypertension [2, 10]: 0 | Hypoalbuminemia [2, 10]: 0 | Hypocalcemia [2, 10]: 0 | Hypokalemia [2, 10]: 0 | Hypomagnesemia [2, 10]: 1 | Hyponatremia [2, 10]: 0 | Hypophosphatemia [2, 10]: 0 | Hypotension [2, 10]: 0 | Hypothyroidism [2, 10]: 0 | Increased blood urea nitrogen [2, 10]: 0 | Insomnia [2, 10]: 2 | Lipase Increase [2, 10]: 0 | Lymphocyte Count Decrease [2, 10]: 0 | Maculopapular Rash [2, 10]: 0 | Mucosal infection [2, 10]: 0 | Mucositis oral [2, 10]: 0 | Muscle weakness [2, 10]: 0 | Myalgia [2, 10]: 0 | Myocardial infarction [2, 10]: 0 | Nausea [2, 10]: 0 | Neutrophil count decrease [2, 10]: 0 | Oral pain [2, 10]: 0 | Palmar-plantar erythrodysesthesia syndrome [2, 10]: 0 | Peripheral Sense Neuropathy [2, 10]: 1 | Platelet Count Decrease [2, 10]: 0 | Pruritus [2, 10]: 0 | Serum amylase increased [2, 10]: 0 | Urinary Tract Infection [2, 10]: 0 | Voice Alteration [2, 10]: 0 | Vomiting [2, 10]: 0 | Weight Loss [2, 10]: 2 | White Blood Cell Decreased [2, 10]: 0 | Would dehiscence [2, 10]: 0 | Wound complication [2, 10]: 0 | Dry skin ([2]; drug related AE, any grade, n=35, listed as R): 0 | patients with toxicities attributed to the drug (alone), number ([2]; of 35 patients): 17
